Experimental data: PubChem BioAssay AID720505 (Drosophila RNAi Screening Center, 2013)

- Screen: 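Fly regulators or components of the CRAC channel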 (primary screen)
- Cell system: Drosophila S2R+ cells
- Reagents: long dsRNA against Drosophila genes
- Challenge: thapsigargin (2 µM) in calcium-free buffer to empty internal stores, then 2 mM calcium added back
- Detection: 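Fluo-4 signal in 384-well plates read on a FLIPR after thapsigargin (2 µM, calcium-free) store depletion and 2 mM calcium add-back; unnormalised mean endpoint per well; screen run twice, selected wells retested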
- Reading the numbers: calcium signal and retest calcium signal: higher = more calcium entry after store depletion
- Call rule: 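About 1500 genes called as lowering calcium entry, by varying amounts, judged against per-plate control wells with STIM1 as positive and Rho1 as negative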
- Meaning of the calls: active = called as lowering calcium entry; inactive = not called
In all, the deposit lists about 20,000 reagents; this is an unselected part of those that have a named target and a result. Over the whole deposit, about 2,100 (10%) were called active. 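Raw plate signals without normalisation; calls rest on control-based scores that were not deposited; replicate 2 separates called from uncalled poorly.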 Reagents against one gene are numbered here. A plus sign joins genes that one reagent is predicted to hit. The record does not give: the amount of reagent, the time to read-out.

| target | dsRNA no. | calcium signal, replicate 1 | calcium signal, replicate 2 | retest calcium signal, replicate 1 | retest calcium signal, replicate 2 | Call |
| --- | --- | --- | --- | --- | --- | --- |
| ymp (yellow-emperor) | 1 | 55.2 | 125 | – | – | active |
| Srp9 (Signal recognition particle 9) | 1 | 67.1 | 47.4 | – | – | active |
| tplus3a + tplus3b | 1 | 128 | 10639 | – | – | inactive |
| CG15395 | 1 | 171 | 178 | – | – | inactive |
| CG17145 | 1 | 68.5 | 114 | – | – | active |
| CG42680 | 1 | 155 | 93 | – | – | inactive |
| Gnmt (Glycine N-methyltransferase) | 1 | 139 | 124 | – | – | inactive |
| Elba2 (Early boundary activity 2) | 1 | 94.8 | 158 | – | – | inactive |
| Cisd2 (CDGSH iron sulfur domain 2) | 1 | 128 | 116 | – | – | inactive |
| kat80 (katanin 80) | 1 | 82.4 | 156 | – | – | inactive |
| kat80 (katanin 80) | 2 | 99.6 | 143 | – | – | inactive |
| CG11052 | 1 | 116 | 165 | – | – | inactive |
| Skel (Skeletor) | 1 | 168 | 96.1 | – | – | inactive |
| Skel (Skeletor) | 2 | 97.3 | 136 | – | – | inactive |
| Toll-7 | 1 | 144 | 156 | 85.2 | 95.8 | inactive |
| Sirt4 (Sirtuin 4) | 1 | 153 | 132 | – | – | inactive |
| cue (cueball) | 1 | 156 | 119 | – | – | inactive |
| CG18537 | 1 | 171 | 198 | – | – | inactive |
| CG9328 | 1 | 71.8 | 91.8 | – | – | inactive |
| Atu (Another transcription unit) | 1 | 157 | 169 | – | – | inactive |
| lok (loki) | 1 | 123 | 168 | – | – | inactive |
| Mec2 | 1 | 171 | 131 | – | – | inactive |
| CG1468 | 1 | 151 | 104 | – | – | inactive |
| Rgk2 (Rad, Gem/Kir family member 2) | 1 | 169 | 162 | – | – | inactive |
| Rgk2 (Rad, Gem/Kir family member 2) | 2 | 170 | 93.9 | – | – | inactive |
| CG2006 | 1 | 59.5 | 94.8 | 148 | 72.4 | active |
| Sr-CIV (Scavenger receptor class C, type IV) | 1 | 70.7 | 198 | – | – | active |
| Map60 (Microtubule-associated protein 60) | 1 | 214 | 164 | – | – | inactive |
| Sema1b (Semaphorin 1b) | 1 | 107 | 102 | – | – | inactive |
| MED11 (Mediator complex subunit 11) | 1 | 75.1 | 134 | – | – | inactive |
| MED11 (Mediator complex subunit 11) | 2 | 87.5 | 109 | – | – | inactive |
| CG3124 | 1 | 96.4 | 153 | – | – | inactive |
| CG3124 | 2 | 107 | 176 | – | – | inactive |
| CAHbeta (Carbonic anhydrase beta) | 1 | 98.4 | 131 | – | – | inactive |
| bib (big brain) | 1 | 114 | 88.4 | – | – | inactive |
| CG14692 | 1 | 148 | 116 | – | – | inactive |
| Cp7Fb (Chorion protein b at 7F) | 1 | 228 | 109 | – | – | inactive |
| CG8908 | 1 | 171 | 132 | – | – | inactive |
| Vha13 (Vacuolar H[+] ATPase 13kD subunit) | 1 | 156 | 133 | – | – | inactive |
| sel (seele) | 1 | 188 | 185 | 86.8 | 133 | inactive |
| Vps36 (Vacuolar protein sorting 36) | 1 | 115 | 115 | – | – | inactive |
| CG17047 | 1 | 102 | 150 | – | – | inactive |
| CG9590 | 1 | 128 | 136 | – | – | inactive |
| RecQ5 (RecQ5 helicase) | 1 | 95.7 | 89.4 | – | – | inactive |
| Ugt317A1 (UDP-glycosyltransferase family 317 member A1) | 1 | 103 | 135 | – | – | inactive |
| CG8172 | 1 | 127 | 140 | – | – | inactive |
| CG8172 | 2 | 73.2 | 214 | – | – | inactive |
| CG8319 | 1 | 144 | 101 | – | – | inactive |
| beat-IV (beaten path IV) | 1 | 161 | 309 | – | – | inactive |
| beat-IV (beaten path IV) | 2 | 133 | 102 | – | – | inactive |
| CG15473 | 1 | 227 | 141 | – | – | inactive |
| CG8079 | 1 | 113 | 107 | – | – | inactive |
| CG8079 | 2 | 94 | 180 | – | – | inactive |

Records above called active, once more:
| target | dsRNA no. | calcium signal, replicate 1 | calcium signal, replicate 2 | retest calcium signal, replicate 1 | retest calcium signal, replicate 2 | Call |
| --- | --- | --- | --- | --- | --- | --- |
| ymp (yellow-emperor) | 1 | 55.2 | 125 | – | – | active |
| Srp9 (Signal recognition particle 9) | 1 | 67.1 | 47.4 | – | – | active |
| CG17145 | 1 | 68.5 | 114 | – | – | active |
| CG2006 | 1 | 59.5 | 94.8 | 148 | 72.4 | active |
| Sr-CIV (Scavenger receptor class C, type IV) | 1 | 70.7 | 198 | – | – | active |

More results:
| target | dsRNA no. | calcium signal, replicate 1 | calcium signal, replicate 2 | retest calcium signal, replicate 1 | retest calcium signal, replicate 2 | Call |
| --- | --- | --- | --- | --- | --- | --- |
| CG33177 | 1 | 71.4 | 113 | – | – | active |
| CG15082 | 1 | 137 | 96.9 | – | – | inactive |
| sw (short wing) | 1 | 74.2 | 66.9 | – | – | active |
| Nca (Neurocalcin) | 1 | 85.6 | 126 | – | – | inactive |
| boca | 1 | 121 | 131 | – | – | inactive |
| CG6928 | 1 | 123 | 75.2 | – | – | inactive |
| msb1l | 1 | 109 | 130 | – | – | inactive |
| lncRNA:CR42646 (long non-coding RNA:CR42646) | 1 | 124 | 112 | – | – | inactive |
| CG12439 | 1 | 106 | 156 | – | – | inactive |
| CRAT (Carnitine O-Acetyl-Transferase) | 1 | 110 | 116 | – | – | inactive |
| CG17855 | 1 | 166 | 188 | – | – | inactive |
| Mur18B (Mucin related 18B) | 1 | 141 | 116 | – | – | inactive |
| Cyp18a1 (Cytochrome P450 18a1) | 1 | 34.6 | 83.8 | – | – | active |
| Fdx2 (Ferredoxin 2) | 1 | 119 | 108 | – | – | inactive |
| CG14743 | 1 | 88.6 | 187 | – | – | inactive |
| CG12691 | 1 | 147 | 150 | – | – | inactive |
| CG13837 | 1 | 191 | 166 | – | – | inactive |
| Syt1 (Synaptotagmin 1) | 1 | 121 | 169 | – | – | inactive |
| Syt1 (Synaptotagmin 1) | 2 | 116 | 187 | 81.5 | 97.2 | inactive |
| Syt1 (Synaptotagmin 1) | 3 | 86.5 | 200 | – | – | inactive |
| Syt1 (Synaptotagmin 1) | 4 | 88.3 | 184 | – | – | inactive |
| Syt1 (Synaptotagmin 1) | 5 | 124 | 230 | – | – | inactive |
| CG31380 | 1 | 203 | 136 | – | – | inactive |
| CG12877 | 1 | 107 | 90.6 | – | – | inactive |
| CG12078 | 1 | 93.9 | 103 | – | – | inactive |
| CG14062 | 1 | 147 | 187 | – | – | inactive |
| CG6415 | 1 | 66.4 | 98.6 | – | – | active |
| dUTPase (Deoxyuridine triphosphatase) | 1 | 115 | 102 | – | – | inactive |
| CG7058 | 1 | 81.4 | 87.7 | – | – | inactive |
| Hexo1 (Hexosaminidase 1) | 1 | 102 | 115 | – | – | inactive |
| CG13198 | 1 | 98.1 | 164 | – | – | inactive |
| Cdk1 (Cyclin-dependent kinase 1) | 1 | 88.8 | 122 | – | – | inactive |
| CG1840 | 1 | 137 | 149 | – | – | inactive |
| nab | 1 | 99.5 | 98.4 | – | – | inactive |
| nab | 2 | 85.8 | 84.3 | – | – | inactive |
| insv (insensitive) | 1 | 176 | 130 | – | – | inactive |
| CG16972 | 1 | 62.4 | 137 | – | – | active |
| Ada1-1 + Ada1-2 | 1 | 266 | 82.7 | – | – | inactive |
| Ada1-1 + Ada1-2 | 2 | 80.2 | 242 | – | – | active |
| CG43260 (retired record) | 1 | 110 | 85.5 | – | – | inactive |
| RunxA (Runt related A) | 1 | 91.9 | 95.5 | – | – | inactive |
| RunxA (Runt related A) | 2 | 115 | 79.8 | – | – | inactive |
| RunxA (Runt related A) | 3 | 74 | 114 | 6692 | 142 | active |
| RunxA (Runt related A) | 4 | 84.2 | 179 | – | – | inactive |
| Qtzl (Quetzalcoatl) | 1 | 211 | 84.6 | – | – | inactive |
| Tsp42Eh (Tetraspanin 42Eh) | 1 | 82 | 89.9 | – | – | inactive |
| CR33318 (pseudo) | 1 | 101 | 136 | – | – | inactive |
| CG4610 | 1 | 115 | 85.6 | – | – | inactive |
| CG4610 | 2 | 94.8 | 89.9 | – | – | inactive |
| rin (rasputin) | 1 | 158 | 225 | – | – | inactive |
| rin (rasputin) | 2 | 115 | 120 | – | – | inactive |
| Topors (Topoisomerase I-interacting protein) | 1 | 131 | 129 | – | – | inactive |
| Nepl16 (Neprilysin-like 16) | 1 | 260 | 184 | – | – | inactive |
